# Data as given in the supplement of paper PMC3741180, “A Novel High Throughput Biochemical Assay to Evaluate the HuR Protein-RNA Complex Formation” (PLoS ONE, 2013).
# Chains of the proteins cited; added tags and fusions are not shown.
# UniProt Q15717, whole entry: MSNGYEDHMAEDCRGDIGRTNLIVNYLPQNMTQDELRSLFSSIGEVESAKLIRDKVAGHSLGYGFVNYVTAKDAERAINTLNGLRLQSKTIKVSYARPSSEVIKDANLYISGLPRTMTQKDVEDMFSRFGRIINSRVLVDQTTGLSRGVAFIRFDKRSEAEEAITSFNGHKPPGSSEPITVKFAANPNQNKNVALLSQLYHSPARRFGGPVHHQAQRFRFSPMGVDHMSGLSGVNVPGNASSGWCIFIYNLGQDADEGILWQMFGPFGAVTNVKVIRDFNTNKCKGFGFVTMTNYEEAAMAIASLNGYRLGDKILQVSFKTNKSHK
# Some of the results follow. Repeats in this data set agree poorly, so a single value says little.
# Target: HuR (ELAVL1) - TNFalpha ARE RNA complex (UniProt Q15717)
# Assay: AlphaScreen HuR-RNA complex signal Z-score relative to positive controls (secondary screen) (Z-score (SD units of positive control)); higher = more complex signal
# Details: screen stage: secondary re-screen
row,SMILES,AlphaScreen HuR-RNA complex signal Z-score
1,CO[C@@H]1[C@@H](OC(N)=O)[C@@H](O)[C@H](Oc2ccc3c(O)c(NC(=O)c4ccc(O)c(CC=C(C)C)c4)c(=O)oc3c2C)OC1(C)C,1.59
2,COc1ccc2cc1Oc1ccc(cc1)C[C@H]1c3cc(c(OC)cc3CCN1C)Oc1c(OC)c(OC)cc3c1[C@H](C2)N(C)CC3,-1.49
3,COc1c2ccoc2cc2oc(C)cc(=O)c12,0.668
4,CN(C)CCc1c[nH]c2ccc(Cn3cncn3)cc12,2.42
5,O=C(O)c1cc(=O)c2c(OCC(O)COc3cccc4oc(C(=O)O)cc(=O)c34)cccc2o1,1
6,CCc1ccc2c(O)c3c(cc2c1C(=O)OC)C(=O)c1c(O)ccc(O)c1C3=O,0.0835
7,CCOc1ccc2ccccc2c1C(=O)N[C@@H]1C(=O)N2[C@@H]1SC(C)(C)[C@@H]2C(=O)O,1.61
8,CN1CCN(CCCN2c3ccccc3Sc3ccc(C(F)(F)F)cc32)CC1,2.57
9,COc1cccc2c1C(=O)c1c(O)c3c(c(O)c1C2=O)C[C@@](O)(C(C)=O)C[C@@H]3O[C@H]1C[C@H](N)[C@H](O)[C@H](C)O1,1.02
10,CC(C)[C@H]1CC[C@H](C(=O)N[C@H](Cc2ccccc2)C(=O)O)CC1,2.55
11,CCCCCCCCCCCCCCCC(=O)OC[C@H](O)[C@H]1OC(=O)C(O)=C1O,-0.265
12,O=c1c(O)c(-c2ccc(O)c(O)c2)oc2cc(O)cc(O)c12,0.282
13,CN(C)CCOC(=O)C(c1ccccc1)C1(O)CCCC1 (configuration not stated),-0.171
14,O=C1CCc2cc(OCCCCc3nnnn3C3CCCCC3)ccc2N1,0.455
15,C=CC(C1=CC(=O)C(OC)=CC1=O)c1ccc(O)cc1 (configuration not stated),1.32
16,O=C(O)CN(CCN(CC(=O)O)CC(=O)O)CC(=O)O.[Na+].[Na+].[Na+],0.596
17,NS(=O)(=O)c1cc(C2(O)NC(=O)c3ccccc32)ccc1Cl (configuration not stated),0.301
18,CCOc1nc2cccc(C(=O)OC(C)OC(=O)OC3CCCCC3)c2n1Cc1ccc(-c2ccccc2-c2nn[nH]n2)cc1 (configuration not stated),1.74
19,CNC[C@H](O)[C@@H](O)[C@H](O)[C@H](O)CO,-0.226

# 3 entries from above, ordered by molecular weight, descending:
row,SMILES,AlphaScreen HuR-RNA complex signal Z-score
6,CCc1ccc2c(O)c3c(cc2c1C(=O)OC)C(=O)c1c(O)ccc(O)c1C3=O,0.0835
10,CC(C)[C@H]1CC[C@H](C(=O)N[C@H](Cc2ccccc2)C(=O)O)CC1,2.55
4,CN(C)CCc1c[nH]c2ccc(Cn3cncn3)cc12,2.42

# The listing continues:

row,SMILES,AlphaScreen HuR-RNA complex signal Z-score
1,CO[C@H]1/C=C/O[C@@]2(C)Oc3c(C)c(O)c4c(O)c(c(/C=N/N5CCN(C)CC5)c(O)c4c3C2=O)NC(=O)/C(C)=C\C=C\[C@H](C)[C@H](O)[C@@H](C)[C@@H](O)[C@@H](C)[C@H](OC(C)=O)[C@@H]1C,1.57
2,Cc1cc(C(C)(C)C)cc(C)c1CC1=NCCN1,1.51
3,OCc1ccccc1O,1.49
4,COc1ccc(-c2cc(C(F)F)nn2-c2ccc(S(N)(=O)=O)cc2)cc1F,0.401
5,COC(=O)C1=C(C)NC(C)=C(C(=O)OC)C1c1ccccc1[N+](=O)[O-],1.05
6,CC(=O)c1ccc(S(=O)(=O)NC(=O)NC2CCCCC2)cc1,0.781
7,O=C(Oc1ccccc1C(=O)O)c1ccccc1O,-3.87
8,CC(COc1ccccc1)NC(C)C(O)c1ccc(O)cc1 (configuration not stated),1.02
9,Cc1cc2c(s1)Nc1ccccc1N=C2N1CCN(C)CC1,2.27
10,CCCSc1ccc2[nH]c(NC(=O)OC)nc2c1,1.87
11,CN[C@@H]1[C@@H](O)[C@@H](O[C@@H]2[C@@H](O)[C@H](O[C@H]3OC(CN)=CC[C@H]3N)[C@@H](N)C[C@H]2N)OC[C@]1(C)O,1.57
12,COC(=O)[C@H]1[C@H]2C[C@@H]3c4[nH]c5cc(OC)ccc5c4CCN3C[C@H]2C[C@@H](OC(=O)c2cc(OC)c(OC)c(OC)c2)[C@@H]1OC,2.13
13,CC(C)=CCC[C@@H](C)[C@@H]1CC[C@]2(C)C3=C(CC[C@@]12C)[C@@]1(C)CC[C@H](O)C(C)(C)[C@@H]1CC3,1.65
14,Nc1c2ccccc2nc2ccccc12,1.22
15,C=C(NC(=O)C(=C)NC(=O)c1csc(C2=N[C@@H]3c4csc(n4)[C@H]4NC(=O)c5csc(n5)[C@H]([C@](C)(O)[C@@H](C)O)NC(=O)[C@H]5CSC(=N5)/C(=C/C)NC(=O)[C@H]([C@@H](C)O)NC(=O)c5csc(n5)[C@]3(CC2)NC(=O)[C@H](C)NC(=O)C(=C)NC(=O)[C@H](C)NC(=O)[C@H]([C@@H](C)CC)N[C@@H]2C=Cc3c([C@H](C)O)cc(nc3[C@H]2O)C(=O)O[C@@H]4C)n1)C(N)=O,2.86
16,CC(C)NCC(O)c1ccc(O)c(O)c1 (configuration not stated),0.824
17,C[C@H]1[C@H](NC(=O)/C(=N\OC(C)(C)C(=O)O)c2csc(N)n2)C(=O)N1S(=O)(=O)O,2.26
18,CC(=O)OCC1=C(C(=O)O)N2C(=O)[C@@H](NC(=O)CSc3ccncc3)[C@H]2SC1,0.134
